Results: PubChem BioAssay AID2685 (National Center for Advancing Translational Sciences (NCATS), 2010)
This is one part of the list. These are further read-outs of the screen, such as a control signal, another cell line or another target. No call is given for them. The list favours compounds with an active or inconclusive main result. The note in brackets gives the kind of curve behind each potency; many fits are weak.

Test: qHTS Assay for Lipid Storage Modulators in Drosophila S3 Cells;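 on cell number change: cells counted by Cell Tracker Red CMTPX staining in the red channel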
Details: BODIPY lipid droplet fluorescence, 18-24 h; for cell number change: measured here: cell count max response, cells fed with added oleic acid
In short: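 Laser-scanning cytometry quantifies lipid droplet accumulation (500–530 nm total intensity; droplet/cell object ratio) in oleic acid-fed (400 uM added) Drosophila S3 cells treated with a concentration series. 20 uM Triacsin C defined 100% inhibition.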

[1] = measured here: cell number channel AC50, cells fed with added oleic acid
[2] = measured here: lipid fluorescence (Fed channel) AC50, cells fed with added oleic acid

Row | SMILES | cell number change | AC50 [1] | AC50 [2]
1 | COc1cccc(C(=O)N/N=C/c2ccc(OC3CSC3)cc2)c1 | 35.7% | 4.61 µM [rising, partial curve] | 6.51 µM [rising, single point]
2 | CC(=O)c1ccc(N2CCN(C(=O)C3CCCN(c4ncnc5c4nc4n5CCCCC4)C3)CC2)cc1 (centres undefined) | 16.8% |  | 0.58 µM [rising, single point]
3 | Cc1ccnc(N2CCC(C(=O)Nc3ccc4c(c3)CCC4)CC2)n1 | -13.8% |  | 1.03 µM [rising, full curve, poor fit]
4 | Cc1c(C)n(Cc2ccccc2)c2ncnc(NCCN(C)C)c12 | 24.4% |  | 16.4 µM [rising, partial curve, poor fit]
5 | COc1ccc(NC(=O)c2ccccc2Cl)c(NC(=O)c2ccco2)c1 | 5.65% |  | 
6 | O=C(c1ccc(N2CCCC2=O)cc1)N1CCN(c2ccccc2Cl)CC1 | 0.82% |  | 25.9 µM [rising, single point]
7 | CCc1nc(Nc2ccccc2)c2nnn(Cc3ccccc3)c2n1 | -32% | 20.6 µM [falling, partial curve, poor fit] | 
8 | COc1ccc(Cl)cc1C(=O)NCCCn1ccnc1 | 8.41% | 6.51 µM [rising, single point] | 
9 | CCOC(=O)c1c(C)[nH]c(C(=O)OCCOc2ccc(Cl)cc2)c1C | -35.3% | 8.2 µM [falling, partial curve, poor fit] | 25.9 µM [falling, single point]
10 | CCCC(=O)N(CCc1ccccc1)Cc1nc2ccccc2c(=O)[nH]1 |  |  | 14.6 µM [rising, single point]
11 | COc1cc(C(c2c(O)cc(C)[nH]c2=O)c2c(O)cc(C)[nH]c2=O)ccc1O |  |  | 0.58 µM [rising, single point]
12 | COc1ccc(N(CC(=O)NCCc2ccccc2)C(=O)CCC(=O)Nc2ccccn2)cc1 | 4.62% |  | 
13 | CCOC(=O)C1=C(O)/C(=C/c2cc(OC)c(OC)c(OC)c2)SC1=Nc1ccc(OC)cc1 | 1.01% |  | 
14 | Cc1ccc(N(CC2CO2)S(=O)(=O)c2ccc(C)cc2)cc1 (centres undefined) | -22.2% |  | 14.6 µM [falling, partial curve, poor fit]
15 | Cc1ccc(CN=c2c([N+](=O)[O-])nn(-c3ccc4c(c3)OCCO4)n2O)cc1 | -34.7% | 29.1 µM [falling, partial curve, poor fit] | 0.0291 µM [falling, full curve, poor fit]
16 | O=C(O)CCc1ccc(-c2ccccc2)n1CC(=O)O | -33.4% |  | 29.1 µM [falling, single point]
17 | Cc1cccc(NC(=O)CCS(=O)(=O)c2cccc3nsnc23)c1C | -12.4% |  | 29.1 µM [falling, single point]
18 | O=C(/C=C/c1ccc(F)cc1)NC(=S)NNC(=O)[C@H]1C[C@@H]1c1ccccc1 | 25.7% |  | 20.6 µM [rising, partial curve]
19 | CCOC(=O)C1CCN(S(=O)(=O)c2ccc3[nH]c4c(c3c2)CCCC4)CC1 | -25% |  | 29.1 µM [falling, single point]
20 | COc1cccc(CN(C)CC(=O)NNC(=O)c2ccc(Cl)cc2)c1 | 14.1% |  | 20.6 µM [rising, single point]

Row | SMILES | cell number change | AC50 [1] | AC50 [2]
21 | Cc1ccc(C2OCC3(CO2)COC(c2ccc(C)cc2)OC3)cc1 (centres undefined) | 2.79% | 6.51 µM [falling, single point] | 6.51 µM [falling, single point]
22 | COc1cc(C(=O)Nc2ccc3c(c2)OCO3)ccc1-n1cnnn1 | -7.37% |  | 
23 | CCc1ccc(CNC(=O)CCC(=O)n2ncc3cc(C)ccc32)cc1 | -6.34% |  | 
24 | Cc1cc(Nc2ccccc2)nc(-c2ccccc2O)n1 | -29.4% |  | 6.51 µM [rising, single point]
25 | CCCOc1c(OC)cccc1C1CC(=O)Nc2cc(OC)c(OC)c(OC)c21 (centres undefined) | -19.5% |  | 29.1 µM [falling, single point]
26 | NC(=O)Cc1ccc(C(=O)c2ccc(F)cc2)s1 | 35.3% | 0.00517 µM [rising, full curve] | 
27 | Cc1ccc(OCC(=O)NNC(=O)Cc2ccc(S(=O)(=O)N3CCOCC3)s2)cc1 | 19.8% |  | 29.1 µM [rising, single point]
28 | O=S(=O)(c1ccccc1Oc1ccc(Cl)cc1Cl)N1CCCCC1 | 6.34% | 4.61 µM [falling, single point] | 
29 | O=C(c1ccco1)N1CCN(C(=S)Nc2ccc(F)c(Cl)c2)CC1 | 17.4% | 1.84 µM [rising, partial curve] | 
30 | CC12CCC(C(=O)N(NC(=O)c3ccccc3O)C1=O)C2(C)C (centres undefined) | 8.03% |  | 
31 | Cc1ccc(CN(C(=O)c2c(F)cccc2F)C2CC(C)(C)NC(C)(C)C2)o1 | -13.2% |  | 3.66 µM [falling, single point]
32 | CC(C)N1CCN(C(=O)c2cccc(Cl)c2)CC1 | 17.4% |  | 
33 | CC(=O)NC(c1cc(F)c2cccnc2c1O)C1CC1 (centres undefined) | 14.2% |  | 
34 | CN(C)CCCCOc1ccccc1F | -4.18% |  | 2.82 µM [falling, single point]
35 | O=C(NCCF)[C@H]1C[C@@H]1[C@H](NP(=O)(c1ccccc1)c1ccccc1)c1ccccc1 | 22.8% |  | 2.59 µM [rising, partial curve, poor fit]
36 | CC(C)N(C(=O)COC(=O)c1cccc(S(=O)(=O)N2CC3(C)CC2CC(C)(C)C3)c1)C(C)C (centres undefined) | -25% | 3.26 µM [rising, partial curve] | 0.366 µM [rising, full curve, poor fit]
37 | COc1ccc2c(c1)OC[C@H]1[C@H]2N2C(=O)c3cc(Br)ccc3NC(=O)[C@@]2(C)[C@H]1c1ccccc1 | 2.84% | 6.51 µM [falling, single point] | 0.58 µM [falling, single point]
38 | Nc1ccc2c(c1)C(=O)c1ccccc1C2=O | -7.5% |  | 
39 | Cc1ccccc1Nc1nnc(SCC(=O)N(C)C2CCS(=O)(=O)C2)s1 (centres undefined) | -12.8% |  | 
40 | O=C(Nc1ccc(S(=O)(=O)Nc2ccccc2)cc1)C1COc2ccccc2O1 (centres undefined) | -39% | 23.1 µM [falling, single point] | 23.1 µM [falling, partial curve]

Four entries picked at random from the list so far:
Row | SMILES | cell number change | AC50 [1] | AC50 [2]
28 | O=S(=O)(c1ccccc1Oc1ccc(Cl)cc1Cl)N1CCCCC1 | 6.34% | 4.61 µM [falling, single point] | 
35 | O=C(NCCF)[C@H]1C[C@@H]1[C@H](NP(=O)(c1ccccc1)c1ccccc1)c1ccccc1 | 22.8% |  | 2.59 µM [rising, partial curve, poor fit]
38 | Nc1ccc2c(c1)C(=O)c1ccccc1C2=O | -7.5% |  | 
37 | COc1ccc2c(c1)OC[C@H]1[C@H]2N2C(=O)c3cc(Br)ccc3NC(=O)[C@@]2(C)[C@H]1c1ccccc1 | 2.84% | 6.51 µM [falling, single point] | 0.58 µM [falling, single point]

(cont.)

Row | SMILES | cell number change | AC50 [1] | AC50 [2]
41 | CCOc1cc(/C=C(/NC(C)=O)C(=O)O)cc(Cl)c1OCc1cccc(Br)c1 | -19.3% |  | 2.59 µM [rising, partial curve]
42 | O=C(N/N=C/c1ccc2c(c1)OCO2)c1cc(-c2ccncc2)nc2ccccc12 | 0.974% |  | 0.146 µM [rising, full curve, poor fit]
43 | CCOC(=O)CN1C=C(c2ccc3ccccc3n2)C(C[N+](=O)[O-])c2ccccc21 (centres undefined) | 172% | 18.4 µM [rising, partial curve] | 9.2 µM [rising, partial curve]
44 | CCOC(=O)COc1c(OC)cc(Cl)cc1C1Nc2ccccc2C(=O)N1c1cccc(C)c1 (centres undefined) | 31% |  | 
45 | Cc1ccc(NC(=O)Cn2c(C)csc2=O)cc1 | 16.5% |  | 
46 | CN(C)c1ccc(O)c2c1CC1CC3[C@@H](N(C)C)C(=O)C(C(N)=O)=C(O)[C@]3(O)C(=O)C1=C2O (some centres undefined) | -33% | 18.4 µM [falling, single point] | 
47 | C=CCn1c(SCC(=O)Nc2ccc(Cl)cn2)nnc1C1CC1 | 13% |  | 6.51 µM [rising, single point]
48 | O=C(O)c1cc2cccc(S(=O)(=O)N3CCOCC3)c2cc1O | -14.5% |  | 
49 | CCOC(=O)CC1C(=O)NCCN1c1nc2c(C)cccn2c(=O)c1/C=C1\SC(=S)N(CC(C)C)C1=O (centres undefined) | 3.74% | 6.51 µM [falling, single point] | 0.0259 µM [falling, full curve, poor fit]
50 | Brc1cccc(CNCc2cccs2)c1 | -23.3% | 0.00461 µM [falling, full curve, poor fit] | 0.00517 µM [falling, full curve, poor fit]
51 | O=C(c1ccc(Br)o1)N1CCN(c2ccc3nnc(-c4ccccc4)n3n2)CC1 |  | 0.184 µM [rising, full curve] | 
52 | CCCCNC(=O)CSc1nnc(-c2c[nH]c3ccccc23)n1CC1CCCO1 (centres undefined) | 37.1% | 0.517 µM [rising, partial curve, poor fit] | 
53 | CN(C)/C=N/c1c(C#N)cnn1-c1ccc(C(F)(F)F)cn1 | 0.79% |  | 
54 | O=C(NCc1ccco1)[C@@H]1CSC2c3ccccc3C(=O)N21 (some centres undefined) | 13.1% |  | 
55 | O=C1CCCC2=C1C(c1ccncc1)Nc1ccccc1N2 (centres undefined) | 2.38% |  | 0.58 µM [falling, single point]
56 | Cc1ccc(OCC(=O)NNC(=O)CSc2ncnc3sc(C)c(C)c23)cc1 | 30.5% | 0.651 µM [rising, full curve, poor fit] | 0.00461 µM [rising, full curve, poor fit]
57 | CCC/C(O)=C1\C(=O)CCCC1=NCCc1c(C)[nH]c2ccccc12 | 29.9% | 0.231 µM [rising, full curve, poor fit] | 0.517 µM [rising, full curve]
58 | COc1ccc(OCC(=O)Nc2ccccc2C(=O)Nc2ccc(C(=O)O)cc2)cc1 | 37.3% | 0.461 µM [rising, partial curve, poor fit] | 
59 | Cc1ccc(COCCN2CCN(S(=O)(=O)c3ccc(C)cc3)CCC2=O)cc1 | -16.5% |  | 16.4 µM [rising, single point]
60 | CCOC(=O)C1CCN(C(=O)c2cc(S(=O)(=O)N3CCOCC3)c(Cl)cc2Cl)CC1 | -0.245% |  | 0.82 µM [rising, full curve, poor fit]
